The list shows a part of the results. The data scatter; read single values as rough.
Columns and labels:
Conditions in all cases: 10 µM
[1] = system: Plasmodium vivax liver stage (primary human hepatocyte culture); assay: hypnozoite quantity inhibition (% inhibition); higher = more active against hypnozoites
[2] = system: Plasmodium vivax liver stage (primary human hepatocyte culture); assay: schizont net growth area inhibition (% inhibition); higher = more active against liver schizonts
[3] = system: primary human hepatocytes; assay: hepatic nuclei reduction relative to DMSO (100 - % of negative control); higher = more toxic to hepatocytes
[4] = assay mode: Prophylactic (treated before or shortly after infection), fixed day 6 post-infection
[5] = assay mode: Radical Cure (treated from day 5 post-infection for 3 days), fixed day 8 post-infection

SMILES	hypnozoite quantity inhibition [1, 4]	hypnozoite quantity inhibition [1, 5]	schizont net growth area inhibition [2, 4]	schizont net growth area inhibition [2, 5]	hepatic nuclei reduction [3, 4] [%]	hepatic nuclei reduction [3, 5] [%]
COc1ccc2nc(N)nc(C)c2c1	-14.7	8.4	-1.2	10.4	-11	-1
CS(=O)(=O)c1ccc(C(=O)N(CC2CCCO2)c2nc3ccccc3s2)cc1[N+](=O)[O-] (stereo not given)	17	-31	-4	50.6	13	10
Clc1ccc(-n2cc(COc3ccnc4ccccc34)nn2)cc1	-20	45	99.2	-54.4	-5	-3
COc1nc(Nc2ccc(C(C)C)cc2)nc(OC)n1	9.5	48.2	29.8	-1.9	4	-3
COc1ccc(C(=O)C2CC2c2ccc(Cl)cc2)cc1 (stereo not given)	-33.3	22.1	27.6	-4.6	-11	-1
O=C(c1[nH]nc2c1CCCC2)N1CCN(Cc2ccc3c(c2)OCO3)CC1	-57	-4	24.8	-215	-6	-1
CC1(c2ccccc2)Nc2ccccc2-c2nc3ccccc3n21 (stereo not given)	-5.1	23.7	44.8	-56.2	-2	-6
CCCc1c(C)nc2ccc(Br)cc2c1O	3.8	1.9	67.9	-12.4	3	-2
O=C(NCCc1c[nH]c2ccccc12)c1cc2ccccc2oc1=O	17	-4	19.6	-84.4	-6	2
CC(C)(C)c1cc(O)c(CN)c(C(C)(C)C)c1.Cl	-26	10	15.9	-38.4	6	0
c1ccc(Oc2ccc(-c3cc(N4CCNCC4)[nH]n3)cc2)cc1	34	-51	-115	20.2	2	3
Cc1cc(Nc2ccc(Cl)cc2)n2nc(C(F)(F)F)nc2n1	9.1	49.6	60.5	-7.7	-9	-1
CCN(CC)CCNc1ncnc2c1[nH]c1ccc(Cl)cc12	-3.5	42.7	-44.7	4.8	2	0
CCC(=O)Nc1ccccc1C(=O)Nc1ccccn1	20	3	-24.7	-138	-9	9
CCn1nc(-c2ccc(C(=O)OC)cc2)nc2c(=O)n(C)c(=O)nc1-2	46.1	48.2	51.7	-34.9	5	-5
Nc1ncnc2c1c(-c1cnc3ccccc3c1)nn2CC1CCNCC1	16	-29	-51.2	-71.5	-4	-6
c1ccc2c(NCCc3c[nH]c4ccccc34)c3ccccc3nc2c1	43	26.5	100	-69.4	11	-4
CNC(=O)C1Cc2ccccc2N1C(=O)Cc1ccc(F)cc1 (stereo not given)	14	-23	32.7	-33.7	0	-5
COc1ccccc1N1CCN(C(CNS(=O)(=O)c2ccc(Cl)cc2)c2cccnc2)CC1 (stereo not given)	12.6	26.5	-35.1	39.6	-5	6
Cc1ccccc1OCCSc1nc2ccc(NC(=O)c3ccccc3)cc2s1	-29.1	31.9	35.3	-21.1	0	-6
N=C(N)Nc1ccc(-c2ccc(-c3ccc(N=C(N)N)c(Cl)c3)o2)cc1Cl	-129	12	-37.4	58.5	-14	-8
COc1ccc(-n2ccnc2SCC(=O)Nc2cc(C)ccc2C)c(OC)c1	-28.4	45.5	-6.6	-21.9	5	-5
COc1cc(NC(C)CCCN)c2nccc(C)c2c1Oc1ccc(Cl)c(Cl)c1 (stereo not given)	-26	18	71.1	28.6	4	-6
COc1ccc2nc(C)cc(Nc3ccc(Cl)cc3)c2c1	36	64.6	48.9	-6.5	-5	6
Cc1ccc(-c2cc(C(=O)Nc3ccc(S(=O)(=O)N4CCCCC4)cc3)[nH]n2)c(O)c1	3.2	15.6	50.1	-66.4	-1	-3
c1csc(-c2cnc3sc(NCC4CCOCC4)nn23)c1	-10	-15	30.3	-140	-5	-4
O=C(CCC1CCCCC1)Nc1cccc(-c2nnc(-c3ccco3)o2)c1	13	40	24.2	-49.9	1	0
Cc1ccc(C(=O)c2oc3ccc4c(C)cc(=O)oc4c3c2C)cc1	-48.1	35.9	-132	-37.5	0	2
Cc1c(Oc2cnc(C(=O)N3CC(C)(O)C3)cn2)ccc2c1B(O)OC2	27	18	102	24.8	-7	-7
Cc1sc(NC(=O)c2ccco2)c(C(c2cccnc2)N2CCC(Cc3ccccc3)CC2)c1C (stereo not given)	12.6	7.4	66	-166	-2	-14

Ordered by molar mass (falling): some entries from above
SMILES	hypnozoite quantity inhibition [1, 4]	hypnozoite quantity inhibition [1, 5]	schizont net growth area inhibition [2, 4]	schizont net growth area inhibition [2, 5]	hepatic nuclei reduction [3, 4] [%]	hepatic nuclei reduction [3, 5] [%]
O=C(CCC1CCCCC1)Nc1cccc(-c2nnc(-c3ccco3)o2)c1	13	40	24.2	-49.9	1	0
c1ccc2c(NCCc3c[nH]c4ccccc34)c3ccccc3nc2c1	43	26.5	100	-69.4	11	-4
COc1ccc2nc(N)nc(C)c2c1	-14.7	8.4	-1.2	10.4	-11	-1

— the supplement of paper PMC8497498
